From US20160113265A1, “[…] AND METHODS THEREOF” (Lanodir USA, Inc., priority 2014, published 2016)

Assay: PH3 sensor readings above and approximately 1 meter below the surface of fumigated barge cargo
Settings: for ppm PH3 below the top surface: approximately 1 meter below surface
[1] = Experiment 1: 2,600 g PH3 (approximately 1.03 g PH3/ton cargo), 2,700 metric tons corn kernels, without turbine, 14 hours post injection
[2] = Experiment 1: 2,600 g PH3, without turbine, 32 hours post injection
[3] = Experiment 1: 2,600 g PH3, without turbine, 56 hours post injection
[4] = Experiment 1: 2,600 g PH3, without turbine, 80 hours post injection
[5] = Experiment 1: 2,600 g PH3, without turbine, approximately two weeks later upon arrival at destination port
[6] = Experiment 2: 2,200 g PH3 (approximately 0.814 g PH3/ton cargo), 2,700 metric tons corn kernels, with a turbine, 14 hours post injection
[7] = Experiment 2: 2,200 g PH3, with a turbine, 32 hours post injection
[8] = Experiment 2: 2,200 g PH3, with a turbine, 56 hours post injection
[9] = Experiment 2: 2,200 g PH3, with a turbine, 80 hours post injection
[10] = Experiment 2: 2,200 g PH3, with a turbine, approximately two weeks later upon arrival at destination port
[11] = Experiment 3: 1,700 g PH3, without auxiliary turbine, 32 hours post injection
[12] = Experiment 3: 1,700 g PH3, without auxiliary turbine, 56 hours post injection
[13] = Experiment 3: 1,700 g PH3, without auxiliary turbine, 80 hours post injection
[14] = Experiment 3: 1,700 g PH3, without auxiliary turbine, approximately two weeks later upon arrival at destination port
[15] = Experiment 4: nine additional barges fumigated as in Experiment 3, final reading approximately two weeks later upon arrival

For `P` [PH3, phosphine gas], the “ppm PH3 above the top surface” value [1] was 0 ppm, the “ppm PH3 below the top surface” value [1] was 2000 ppm and the “ppm PH3 above the top surface” value [2] was 31 ppm. The “ppm PH3 below the top surface” value [2] was 1,500 ppm, the “ppm PH3 above the top surface” value [3] was 52 ppm and the “ppm PH3 below the top surface” value [3] was 1,356 ppm. The “ppm PH3 above the top surface” value [4] was 108 ppm, the “ppm PH3 below the top surface” value [4] was 1,300 ppm and the “ppm PH3 above the top surface of the cargo” value [5] was 0 ppm. For the same compound, the “ppm PH3 below the top surface of the cargo” value [5] was 0 ppm, the “ppm PH3 above the top surface” value [6] was 0 ppm and the “ppm PH3 below the top surface” value [6] was 1,700 ppm. For the same compound, the “ppm PH3 above the top surface” value [7] was 502 ppm, the “ppm PH3 below the top surface” value [7] was 1,025 ppm and the “ppm PH3 above the top surface” value [8] was 580 ppm. For the same compound, the “ppm PH3 below the top surface” value [8] was 1,000 ppm, the “ppm PH3 above the top surface” value [9] was 660 ppm and the “ppm PH3 below the top surface” value [9] was 112 ppm. For the same compound, the “ppm PH3 above the top surface of the cargo” value [10] was 0 ppm, the “ppm PH3 below the top surface of the cargo” value [10] was 0 ppm and the “ppm PH3 above the top surface” value (Experiment 3: 1,700 g PH3 (approximately 0.620 g PH3/ton cargo), 2,700 metric tons corn kernels, without auxiliary turbine, delivery equipment air flow only, 14 hours post injection) was 0 ppm. The “ppm PH3 below the top surface” value (Experiment 3: 1,700 g PH3 (approximately 0.620 g PH3/ton cargo), 2,700 metric tons corn kernels, without auxiliary turbine, 14 hours post injection) was 1,452 ppm, the “ppm PH3 above the top surface” value [11] was 150 ppm and the “ppm PH3 below the top surface” value [11] was 1,300 ppm. The “ppm PH3 above the top surface” value [12] was 225 ppm, the “ppm PH3 below the top surface” value [12] was 1,380 ppm and the “ppm PH3 above the top surface” value [13] was 270 ppm. For the same compound, the “ppm PH3 below the top surface” value [13] was 1,120 ppm, the “ppm PH3 above the top surface of the cargo” value [14] was 0 ppm and the “ppm PH3 below the top surface of the cargo” value [14] was 0 ppm. For the same compound, the “ppm PH3 above the top surface of the cargo” value [15] was 0 ppm and the “ppm PH3 below the top surface of the cargo” value [15] was 0 ppm.
